From patent US10744180B2, “Therapy and kit for the prevention and treatment of cystic fibrosis” (Trustees of Dartmouth College, priority 2015, dated 2020)
At least one structure is not confirmed: it was looked up by name or label, or the drawing left a doubt. Where a SMILES comes first, the peptide text is derived from it. The star is where a group is joined. X1 = NCCc1ccc(C(=O)*)cc1

Columns and labels:
[1] = target: T1, NHERF-1 PDZ1 (Homo sapiens, UniProt O14745); experiment: competitive fluorescence polarization binding, NHERF-1 PDZ1
T1 sequence (O14745 14-94 limits assumed): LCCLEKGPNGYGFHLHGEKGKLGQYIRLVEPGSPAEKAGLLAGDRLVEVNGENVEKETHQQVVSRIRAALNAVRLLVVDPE

[2] = target: T2, NHERF-1 PDZ2 (Homo sapiens, UniProt O14745); experiment: competitive fluorescence polarization binding, NHERF-1 PDZ2
T2 sequence (O14745 154-234 limits assumed): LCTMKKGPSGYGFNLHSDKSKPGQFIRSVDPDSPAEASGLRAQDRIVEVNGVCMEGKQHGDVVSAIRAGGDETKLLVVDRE

[3] = target: T3, TIP-1 (Homo sapiens, UniProt O14907); experiment: competitive fluorescence polarization binding, TIP-1
T3 sequence (O14907 1-124): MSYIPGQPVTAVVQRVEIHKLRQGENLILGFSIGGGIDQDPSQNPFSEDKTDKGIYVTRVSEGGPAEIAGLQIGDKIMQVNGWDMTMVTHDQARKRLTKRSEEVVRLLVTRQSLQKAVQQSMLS

Measured: Ki

CC[C@H](C)[C@H](NC(=O)[C@H](CCCCNC(=O)c1ccc(CCN)cc1)NC(=O)[C@H](CO)NC(=O)[C@@H](NC(=O)[C@@H]1CCCN1C(=O)[C@H](CC(C)C)NC(=O)[C@H](CCCNC(=N)N)NC(=O)[C@H](CO)NC(=O)[C@H](CC(N)=O)NC(=O)[C@H](C)N)[C@@H](C)O)C(=O)O [ANSRLPTS [K-AEBA] I] (H-ANSRLPTSK(X1)I-OH; N-terminus assumed)
> 5 mM: all assays above
